Values quoted from earlier work as cited in US20140235576A1, “PYRROLIDINE-2-CARBOXYLIC ACID DERIVATIVES AS IGLUR ANTAGONISTS” (Kobenhavns Universitet, priority 2013, published 2014).
Some of these results come from one statement about several compounds together. At least one structure is not confirmed: it was looked up by name or label, or the drawing left a doubt. Some ranges recur; such a range may be that of the whole group of compounds.

Test system: GluN2A-D subunits
Conditions: varying degrees, literature ref 38; cited from earlier work

C[C@H](NC(c1cccc2[nH]c(=O)c(=O)[nH]c12)P(=O)(O)O)c1ccc(Br)cc1 (stereo partly shown) [NVP-AAM077]
subunit preference among GluN2A-D: 2-10 fold
